# Test results taken from the supplement of paper PMC3334620.
# The full ranking holds about 33,000 sequences; the median of “E-score (-0.5 to 0.5)” is about -0.0059, and the highest 2% start at about 0.26. The list shows a part of the results.
# Target: T1, Cin5 (UniProt P40917)
# T1 sequence: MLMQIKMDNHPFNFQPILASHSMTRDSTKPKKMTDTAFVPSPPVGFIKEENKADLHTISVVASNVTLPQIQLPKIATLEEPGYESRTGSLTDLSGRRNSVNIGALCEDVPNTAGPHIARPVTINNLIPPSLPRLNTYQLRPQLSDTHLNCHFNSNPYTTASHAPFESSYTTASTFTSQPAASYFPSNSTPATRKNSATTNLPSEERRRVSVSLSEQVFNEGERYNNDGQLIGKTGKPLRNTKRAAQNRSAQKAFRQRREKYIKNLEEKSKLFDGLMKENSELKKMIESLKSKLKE
# Experiment: PBM E-score (8-mer binding enrichment) (E-score (-0.5 to 0.5)); higher = stronger / more preferred TF binding
# Conditions: protein concentration: 100 nM; construct: GST-full length
# Method in brief: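 Masliner-normalised scans of fluorescent anti-GST signal were the basis for scoring. That signal came from GST-tagged yeast transcription factors applied at about 100-200 nM to double-stranded universal all-10-mer Agilent arrays on fresh or once-stripped slides. Each ungapped eight-base word, pooled with its reverse complement, received an E-score from the Universal PBM Analysis Suite.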
row,Sequence,PBM E-score
1,CATGTAGG,-0.101
2,AGGGAATC,0.111
3,ATAACGAT,0.0688
4,ATGGCAGC,-0.0278
5,CTCACTGC,-0.0229
6,AGGAAAAC,-0.00842
7,ACCACGAA,-0.0559
8,ACGTGATG,0.139
9,AAACAGCG,0.224
10,GTGGACGA,-0.038
11,CGTACCAA,0.0416
12,CTCTGTGA,0.0243
13,AGGTGAGA,0.0308
14,CTAGTACA,0.0849
15,GGCTATTA,0.0403
16,ATCCGAAC,0.0693
17,AGAGCCGA,0.058
18,AGCTTTCC,-0.0292
19,CCAATTGG,0.0961
20,CCGTTTTA,0.03
21,GACTAACC,-0.0832
22,GCTGCTTA,0.16
23,ACATAGTG,0.0936
24,ACGAAACG,0.0719
25,GGTGGATA,-0.0345

# A section of the results above, for reference:
row,Sequence,PBM E-score
1,CATGTAGG,-0.101
2,AGGGAATC,0.111
3,ATAACGAT,0.0688
4,ATGGCAGC,-0.0278
5,CTCACTGC,-0.0229

# Later entries.

row,Sequence,PBM E-score
1,CACTCAAC,0.217
2,TAGATAAA,0.154
3,CGCTCGAA,-0.06
4,GACAAGTA,0.0326
5,ACAAACCG,0.0156
6,AAACCACA,0.16
7,AGAGCTTC,-0.138
8,AGGTCCTG,-0.142
9,AGACGTCC,-0.0972
10,ATCTGAAA,0.0363
11,CCCTGTAG,-0.0847
12,CACCGGGG,-0.28
13,GATACTGC,0.186
14,ATTCACTG,-0.0867
15,AGCGTGCA,0.103
16,CTAATGGC,-0.0137
17,CGGTGGGA,-0.0783
18,CCCACAAC,-0.106
19,ATAGGCCA,0.0284
20,CACTCGCA,-0.00783
21,AAAACTCT,-0.184
22,AATCAGTC,0.0788
23,ACTATCAG,-0.00105
24,CAGACCGC,0.0618
25,CACATTCA,0.0477

row,Sequence,PBM E-score
1,CCAAAAAC,0.123
2,AGATCTCG,0.0286
3,ATGGTTTC,0.0652
4,CAATTGGA,0.0923
5,ACCGGGCG,-0.328
6,AGTACTGA,0.104
7,ATGCTAGC,-0.007
8,CTTATAGA,0.13
9,TAAGTCAA,0.0506
10,GACAATCC,0.148
11,AAGCAAGA,0.126
12,ACCATTGA,-0.00031
13,TCGACCGA,-0.062
14,GCCTACGA,0.0143
15,ACCACGCC,-0.269
16,GTATCGTA,0.148
17,CAACACGA,0.0657
18,CGAATAAG,-0.121
19,CAAGTCCA,-0.128
20,AACGCAAG,0.00496
21,CGGCCCGA,-0.121
22,CAACCCCC,-0.356
23,GACATCTA,0.0357
24,CCACATGG,-0.152
25,CACGTGTA,0.019

# Single values from the results shown.
# Value of CACGTGTA under PBM E-score: 0.019
# Value of CTAGTACA under PBM E-score: 0.0849
# Value of GTGGACGA under PBM E-score: -0.038

# Further results:

row,Sequence,PBM E-score
1,CTTGTCAA,-0.0299
2,AATAATAT,0.356
3,AGCCATTC,0.09
4,AGGAGAAG,-0.129
5,AGTACGAC,0.0931
6,CTAGGGAC,-0.16
7,CAGCCATA,-0.0852
8,CACAGAAC,-0.157
9,GTGTCTCA,-0.0352
10,CGAGGCCG,-0.204
11,AAGTCTGA,-0.254
12,ACGGGGAT,-0.0426
13,AACGAATA,0.0414
14,CACCCTCG,-0.0636
15,GCAGTAGC,-0.198
16,TTGGAAAA,0.0334
17,AGGCAATA,0.029
18,CTTGGGTC,-0.0931
19,GAGGTCCA,-0.14
20,CAAACTGG,0.0735
21,ACGCGAGC,0.025
22,TCGAGTAA,0.191
23,AGCTGTTG,0.0373
24,AGGCGCCT,-0.0953
25,ATGAGAAG,-0.0766

row,Sequence,PBM E-score
1,AATCCTAT,0.202
2,CCAGGTTC,-0.258
3,CCCAATCC,-0.013
4,CCATCAGC,-0.00921
5,GGAGACAA,0.0469
6,CTTTCCTC,-0.146
7,GCGACCCA,-0.0919
8,GGCAGGCC,-0.267
9,CCCCCCGC,-0.413
10,GCTGTGCA,-0.242
11,CAAAGGTG,-0.0729
12,GGCCAGCA,-0.0464
13,ATGCAGCG,-0.15
14,AAAACGAC,-0.0346
15,AGAATAGG,0.175
16,AGAGGATA,-0.0885
17,ATGATCCG,-0.0235
18,AGTGGTAC,-0.0959
19,GTTCCGGA,0.0526
20,CCTGCCAG,-0.245
21,ACGTTCCG,0.00868
22,ATCTAATA,0.19
23,CCCCATCA,0.0908
24,CAGCTATC,-0.0573
25,ACTAGACA,0.0434

row,Sequence,PBM E-score
1,CGTAGATC,0.0806
2,TATTGTGA,0.132
3,AGCTTCGC,-0.0766
4,CGTCCTAG,-0.189
5,AAAGACTA,-0.141
6,AAGCCGGT,0.00444
7,GCGGGAGC,-0.207
8,CAAGGGAG,-0.178
9,ATCCCCAT,0.086
10,CCGTACGC,-0.175
11,ATGTATGC,0.185
12,GCGGACAA,0.094
13,AAGAGTTG,0.0662
14,AGTATGCA,0.0195
15,CACTCGAA,-0.0491
16,CTCTACCA,0.00013
17,AGTAGTGA,0.0605
18,AGAGGGAT,-0.228
19,GGCTATCA,-0.072
20,AGGGAGGG,-0.126
21,CTCGCCAG,-0.167
22,CACCCGGC,-0.351
23,GTCCGGAC,0.224
24,ACCAATCG,0.118
25,GTTCCAAC,-0.102

row,Sequence,PBM E-score
1,ACTCGCTG,-0.0532
2,ACCTCAGG,-0.0652
3,AGAATGAC,0.0989
4,CAGAGGCG,-0.0867
5,CAGTCTTC,-0.184
6,AAGTGAAT,0.222
7,TAGTTACA,0.0444
8,AGCTCGAG,-0.0648
9,CGTATACG,0.0769
10,AACTAGAC,0.0502
11,GAATTTCC,0.101
12,ATCAGGCC,-0.0206
13,GTCATATA,0.168
14,GAGCGCAC,-0.0882
15,AAGTCGGA,-0.047
16,AATCAGAT,0.12
17,GAAGGAAC,-0.167
18,TGCCGCCA,-0.00336
19,CTCTCGAA,-0.104
20,GTGAACTA,-0.0419
21,CGGAAGAG,-0.0136
22,GGATATGA,0.0996

# In another format: results already given.
row	Sequence	PBM E-score
11	GAATTTCC	0.101
12	ATCAGGCC	-0.0206
13	GTCATATA	0.168
